These are yes or no findings as the source states them, for the method shown. Binding seen in cells or lysates may run through a third protein. Some results given as binding are weak or reduced against the parent protein; the word gives no strength.

The chains behind the UniProt entries cited, without tags or fusion partners.
UniProt P19338: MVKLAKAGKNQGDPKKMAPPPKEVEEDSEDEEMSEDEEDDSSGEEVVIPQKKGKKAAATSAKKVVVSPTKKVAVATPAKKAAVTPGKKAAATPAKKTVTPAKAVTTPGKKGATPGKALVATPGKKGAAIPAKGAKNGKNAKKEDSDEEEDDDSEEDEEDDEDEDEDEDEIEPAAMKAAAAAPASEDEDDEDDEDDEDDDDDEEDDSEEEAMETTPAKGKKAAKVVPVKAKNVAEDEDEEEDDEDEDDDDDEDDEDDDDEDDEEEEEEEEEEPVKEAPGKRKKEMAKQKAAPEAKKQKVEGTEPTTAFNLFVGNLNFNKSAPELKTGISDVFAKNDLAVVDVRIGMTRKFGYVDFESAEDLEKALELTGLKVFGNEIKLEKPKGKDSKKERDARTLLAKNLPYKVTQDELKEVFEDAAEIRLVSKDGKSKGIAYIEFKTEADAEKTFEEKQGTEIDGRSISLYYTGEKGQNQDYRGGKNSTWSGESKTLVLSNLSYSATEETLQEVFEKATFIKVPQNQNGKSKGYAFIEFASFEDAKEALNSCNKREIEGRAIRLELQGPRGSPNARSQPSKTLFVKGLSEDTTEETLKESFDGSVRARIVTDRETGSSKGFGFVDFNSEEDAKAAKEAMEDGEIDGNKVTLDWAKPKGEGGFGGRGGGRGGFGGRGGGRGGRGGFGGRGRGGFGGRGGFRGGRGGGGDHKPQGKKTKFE

Assay [1] concerns the target Nucleolin (NCL), endogenous in human cells (human (endogenous in HUVEC and U87MG)) (UniProt P19338). The assay can be described thus: co-IP; HUVEC lysates in PBS with 1% Triton X-100, 0.1% SDS; immunoprecipitation for IgG, PTN or NCL, Western blot for NCL or PTN respectively.
For assay [2] the target is unchanged. Nature of the assay: co-IP; nuclear, cytosolic and membrane fractions of U87MG cells, equal total protein; immunoprecipitated for NCL or PTN, Western blot for PTN or NCL.
The target in assay [3] is T1, Nucleolin (NCL), endogenous in chicken embryo CAM (chicken (endogenous in chicken embryo CAM)) (UniProt P15771).
T1 sequence: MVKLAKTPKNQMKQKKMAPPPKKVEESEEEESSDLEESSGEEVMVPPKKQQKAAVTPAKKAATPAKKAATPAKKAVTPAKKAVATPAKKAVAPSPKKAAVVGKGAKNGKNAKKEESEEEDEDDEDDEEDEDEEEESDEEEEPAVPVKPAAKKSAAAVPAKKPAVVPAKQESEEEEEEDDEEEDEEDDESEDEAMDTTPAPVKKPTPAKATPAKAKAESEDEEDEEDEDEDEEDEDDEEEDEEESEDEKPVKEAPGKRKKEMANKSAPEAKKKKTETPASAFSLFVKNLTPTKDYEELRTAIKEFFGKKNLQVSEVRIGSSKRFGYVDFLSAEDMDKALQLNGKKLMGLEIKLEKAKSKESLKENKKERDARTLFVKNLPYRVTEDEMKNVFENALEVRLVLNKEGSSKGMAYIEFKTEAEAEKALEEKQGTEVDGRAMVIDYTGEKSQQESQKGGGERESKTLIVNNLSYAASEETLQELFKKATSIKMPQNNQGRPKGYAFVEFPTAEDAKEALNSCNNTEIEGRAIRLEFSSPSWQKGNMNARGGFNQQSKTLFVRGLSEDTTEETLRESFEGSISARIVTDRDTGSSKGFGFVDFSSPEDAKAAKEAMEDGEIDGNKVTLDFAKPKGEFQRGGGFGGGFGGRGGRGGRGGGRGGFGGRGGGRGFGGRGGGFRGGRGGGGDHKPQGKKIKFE
The assay can be described thus: co-IP; 3 mg total protein of chicken embryo CAM extracts from different developmental stages; homogenised in PBS with 1% Triton X-100, 0.1% SDS; primary antibody 16 h at 4°C, protein A- and G-agarose beads; Western blot of the precipitate. Background: Immunoblotting shows a protein as a band on a membrane.

B1: Pleiotrophin (PTN), endogenous in human cells (ligand, UniProt P21246 33-168)
chain: GKKEKPEKKVKKSDCGEWQWSVCVPTSGDCGLGTREGTRTGAECKQTMKTQRCKIPCNWKKQFGAECKYQFQAWGECDLNTALKTRTGSLKRALHNAECQKTVTISKPCGKLTKPKPQAESKKKKKEGKKQEKMLD
For the molecule B1, the binding result in assay [1] and in assay [2] was “binds” throughout.

B2: Pleiotrophin (PTN), endogenous in chicken embryo chorioallantoic membrane (CAM) (ligand, UniProt P32760 31-165)
chain: GKKEKPEKKAKKSDCGEWQWSVCVPTNGDCGLGTREGTRTGAECKQTTKTQKCKIPCNWKKQFGAECKYQFQAWGECDLNTALKTRTGNLKRALHNADCQKTVTISKPCGKLTKPKPQESKKKKKEGKKQEKMLD
B2: the binding result in assay [3] was “binds”.

The values above are taken from PMC3379939.
